Hit rate of the full screen: of about 350,000 compounds, about 6,000 (1.7%) were called active. The shares of active, inactive and inconclusive entries below differ from those in the screen. No stated cut-off is given here; in the data, active means CPE inhibition above about 20% (passing the limit was not always enough); inconclusive means no clear call, values can overlap the other calls; tested in BHK-21 cells.
Assay: protection of cells from dengue 2 killing – plate reader, single concentration, primary screen (AID 651640);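 further: 0% = median of neutral control wells and 100% = median of positive control wells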
Conditions: DENV2-infected cells, cytopathic effect rescue, at 9.99 µM, stronger effect = higher value

Q: Which CPE inhibition does the source give for O=C(Nc1ccc(Cl)c(Cl)c1)N[C@@H]1CC[C@@H](CCn2cc(C3CC3)nn2)O[C@@H]1CO here?
A: The CPE inhibition was inconclusive: 21.1%.

Q: Which CPE inhibition does the source give for COc1ccc(CCNC(=O)CN2C(=O)NC3(CCCCC3)C2=O)cc1 here?
A: The CPE inhibition was inactive: 0.804%.

Q: Which CPE inhibition does the source give for CCC(=O)N1CC2(C1)CN(C(=O)Nc1ccccc1F)[C@@H](CO)c1[nH]c3cc(OC)ccc3c12 here?
A: Its CPE inhibition is inactive: -0.678%.

Q: With COCCNC(=O)C1(C)CCN(C(=O)c2cc(C(C)(C)C)nn2C)C1 (stereo unspecified) as the molecule, how does the CPE inhibition read?
A: The CPE inhibition was active: 37.7%.

Q: With C[C@@H]1CCCCO[C@H](CN(C)C(=O)Cc2ccccc2)[C@@H](C)CN([C@H](C)CO)C(=O)c2cc(NC(=O)Nc3cccc4ccccc34)ccc2O1 as the molecule, how does the CPE inhibition read?
A: Its CPE inhibition is inactive: 14.4%.

Q: For CSc1cccc(NC(=O)CC2Oc3ccccc3NC2=O)c1 (stereo unspecified), which CPE inhibition is on record?
A: Its CPE inhibition is active: 37.2%.

Q: With C[C@@H]1CN([C@H](C)CO)C(=O)Cc2cc(NC(=O)CCCCCC(=O)Nc3ccccc3N)ccc2O[C@H]1CN(C)S(=O)(=O)c1cn(C)cn1 as the molecule, how does the CPE inhibition read?
A: The CPE inhibition was inactive: -10.2%.

Q: With NS(=O)(=O)c1cc(C(=O)OCC(=O)N2CCc3ccccc3C2)ccc1Cl as the molecule, how does the CPE inhibition read?
A: Its CPE inhibition is inconclusive: 24.4%.

Q: Which CPE inhibition does the source give for C[C@@H]1CCCCO[C@@H](CN(C)C(=O)NC2CCCCC2)[C@H](C)CN([C@H](C)CO)C(=O)c2cc(NC(=O)CCC(F)(F)F)ccc2O1 here?
A: Its CPE inhibition is inactive: -1.46%.

Q: For O=C(C[C@H]1CC[C@H](NS(=O)(=O)c2ccc(F)cc2)[C@H](CO)O1)NCc1ccncn1, which CPE inhibition is on record?
A: The CPE inhibition was active: 23.4%.

Q: For C[C@@H]1CN([C@H](C)CO)S(=O)(=O)c2ccc(-c3cncnc3)cc2O[C@@H]1CN(C)C, which CPE inhibition is on record?
A: Its CPE inhibition is inactive: 6.3%.

Q: For CNC[C@H]1OCc2cnnn2CCCC(=O)N([C@H](C)CO)C[C@@H]1C, which CPE inhibition is on record?
A: The CPE inhibition was inconclusive: 56.6%.

Q: Which CPE inhibition does the source give for C[C@H]1CN([C@@H](C)CO)C(=O)CCCn2nncc2CO[C@H]1CN(C)C(=O)Nc1ccc2c(c1)OCO2 here?
A: Its CPE inhibition is inconclusive: 21.2%.

Q: With CC(C)c1cn(CC[C@H]2CC[C@H](NS(=O)(=O)Cc3ccccc3)[C@H](CO)O2)nn1 as the molecule, how does the CPE inhibition read?
A: Its CPE inhibition is inactive: 1.48%.

Q: For COc1ccc(Cl)cc1/C=N/NC(=O)c1c(-c2ccccc2)noc1C, which CPE inhibition is on record?
A: Its CPE inhibition is inconclusive: 26.5%.

Q: With Cc1cccc(S(=O)(=O)N2CCCCN3[C@H](CO)[C@H](c4ccc(-c5cccnc5)cc4)[C@@H]3C2)c1 as the molecule, how does the CPE inhibition read?
A: The CPE inhibition was active: 47.4%.

Q: For CC1CCC(NC(=O)c2ccc3c(c2)OCO3)CC1 (stereo unspecified), which CPE inhibition is on record?
A: Its CPE inhibition is inconclusive: 55.9%.

Q: With CCNC(=O)C[C@@H]1CC[C@@H]2[C@H](COc3ccc(NC(=O)Cc4ccccc4)cc3C(=O)N2C)O1 as the molecule, how does the CPE inhibition read?
A: Its CPE inhibition is active: 27.1%.

Q: Which CPE inhibition does the source give for C[C@@H]1CN([C@H](C)CO)C(=O)c2cccc(NC(=O)c3ccncc3)c2O[C@@H]1CN(C)Cc1ccc(-c2ccccc2)cc1 here?
A: Its CPE inhibition is inconclusive: 37.6%.

Q: With CC(C)NC(=O)C1(C)CCCN1Cc1ccccc1C#N (stereo unspecified) as the molecule, how does the CPE inhibition read?
A: Its CPE inhibition is inconclusive: 54.6%.

Q: Which CPE inhibition does the source give for CO[C@@H]1CN(C)C(=O)c2cc(NC(=O)C3CCOCC3)ccc2OC[C@@H](C)N(S(=O)(=O)c2ccc(Cl)cc2)C[C@H]1C here?
A: The CPE inhibition was inactive: -4.25%.

Q: For O=C(CSc1nc2ccc(Nc3nc(N4CCOCC4)nc(N4CCOCC4)n3)cc2s1)Nc1ccccc1F, which CPE inhibition is on record?
A: The CPE inhibition was inconclusive: 24.7%.

Q: For CCCCCCN1C[C@H](O)[C@@H](n2cc(COC(=O)c3ccccc3)nn2)C[C@@H]1c1ccc(C)cc1, which CPE inhibition is on record?
A: The CPE inhibition was inconclusive: 36.1%.

Q: With COc1ccc(-c2ccc3c(c2)S(=O)(=O)c2cccc(C(=O)N4CCN(c5ccc(Cl)cn5)CC4)c2C3=O)cc1OC as the molecule, how does the CPE inhibition read?
A: Its CPE inhibition is inconclusive: 70%.

Q: For O=C(C1CCOCC1)N1CC[C@@H]2[C@H]1c1cc(-c3cccc(F)c3)ccc1N[C@@H]2CO, which CPE inhibition is on record?
A: The CPE inhibition was active: 87.9%.

Q: For CCN(CC(=O)Nc1ccc(OC)cc1)C(=O)c1ccc2ccccc2c1, which CPE inhibition is on record?
A: The CPE inhibition was inconclusive: 22.6%.

Q: With COc1ccc(NC(=O)N(C)C[C@H]2Oc3ccc(NC(=O)C4CCCCC4)cc3CC(=O)N([C@@H](C)CO)C[C@H]2C)cc1 as the molecule, how does the CPE inhibition read?
A: The CPE inhibition was inactive: -1.62%.

Q: With Cc1ccc(C(=O)OCC(=O)Nc2ccccc2C(F)(F)F)cc1S(=O)(=O)N1CCCCC1 as the molecule, how does the CPE inhibition read?
A: Its CPE inhibition is active: 101%.

Q: Which CPE inhibition does the source give for C=CC[C@@]1(C(=O)N2CCCCC2)N=C(c2ccc(OCCCO)cc2)O[C@@H]1c1ccccc1 here?
A: The CPE inhibition was inconclusive: 23.7%.

Q: With CC(C)(C)OC(=O)NCc1ccc(CNC(=O)c2nc[nH]c2C(=O)N2CCN(c3ccccc3)CC2)cc1 as the molecule, how does the CPE inhibition read?
A: Its CPE inhibition is inconclusive: 21.9%.

Q: Which CPE inhibition does the source give for O=C(NCC[C@@H]1CC[C@H](NC(=O)Nc2cc(F)ccc2F)[C@H](CO)O1)Nc1ccc(Cl)cc1 here?
A: Its CPE inhibition is inactive: 16.9%.

Q: Which CPE inhibition does the source give for O=C(O)C1=C[C@H](C2CC2)C[C@H](OCCCCO)O1 here?
A: The CPE inhibition was inconclusive: 59.1%.

Q: With Cc1ccc(S(=O)(=O)N[C@H]2CC[C@H](CC(=O)NCc3ccncn3)O[C@H]2CO)cc1 as the molecule, how does the CPE inhibition read?
A: Its CPE inhibition is inactive: 2.25%.

Q: For C[C@H](CO)N1C[C@H](C)[C@@H](CN(C)Cc2ccc(C(F)(F)F)cc2)Oc2c(NC(=O)C3CCCCC3)cccc2C1=O, which CPE inhibition is on record?
A: The CPE inhibition was inactive: -0.897%.

Q: With COc1ccc(NC(=O)CCCNC(=O)c2ccc(Cl)cc2)cc1OC as the molecule, how does the CPE inhibition read?
A: Its CPE inhibition is inconclusive: 27.5%.

Q: Which CPE inhibition does the source give for CCC(=O)N1CCN(c2nc(CC)nc3sc4c(c23)CCCC4)CC1 here?
A: The CPE inhibition was inconclusive: 30.9%.

Q: Which CPE inhibition does the source give for O=C(CCC1CCCN(C(=O)c2ccc3c(c2)OCO3)C1)NCc1ccc(F)c(F)c1 (stereo unspecified) here?
A: The CPE inhibition was inactive: 2.92%.

Q: With Cc1ccc(S(=O)(=O)N2CCC(C(=O)OCC(=O)N3CCCCC3C)CC2)cc1C (stereo unspecified) as the molecule, how does the CPE inhibition read?
A: Its CPE inhibition is inconclusive: 24.2%.

Q: Which CPE inhibition does the source give for CCCC1NC(=O)c2cc3ccccc3cc2-n2c1nc1ccc(C)cc1c2=O (stereo unspecified) here?
A: The CPE inhibition was inconclusive: 41.8%.

Q: Which CPE inhibition does the source give for NC(=O)C1CCN(C(=O)C2CC(=O)N(c3ccc4c(c3)OCCO4)C2)CC1 (stereo unspecified) here?
A: The CPE inhibition was active: 24.3%.

Q: Which CPE inhibition does the source give for COc1ccc(C(=O)N2C[C@H]3[C@@H](c4ccccc42)[C@@H](CO)N3Cc2ccccc2)cc1 here?
A: The CPE inhibition was inactive: -14.2%.

Q: For O=C(O)[C@@H]1CCCN1S(=O)(=O)c1cccc(S(=O)(=O)N2CCC[C@H]2C(=O)O)c1, which CPE inhibition is on record?
A: Its CPE inhibition is inactive: 4.83%.

Q: Which CPE inhibition does the source give for Cc1ccc(S(=O)(=O)N(CC(O)CN2CCCCC2)c2ccccc2)cc1 (stereo unspecified) here?
A: Its CPE inhibition is inconclusive: 26.3%.

Q: Which CPE inhibition does the source give for COCC#Cc1ccc([C@H]2[C@H]3CN(Cc4cncnc4)CCCCN3[C@H]2CO)cc1 here?
A: Its CPE inhibition is active: 20.7%.

Q: With COc1ccc(NC2CCCN(Cc3cccc4cnccc34)C2)cc1 (stereo unspecified) as the molecule, how does the CPE inhibition read?
A: The CPE inhibition was inactive: -2.81%.

Q: With O=C(NC[C@H]1[C@H](c2ccccc2)[C@H](CO)N1C(=O)Cc1cccnc1)C1CCC1 as the molecule, how does the CPE inhibition read?
A: The CPE inhibition was inconclusive: 53.4%.

From PubChem BioAssay AID651640 (Broad Institute, 2012)
